Two substances from publication PMC10933263 (EMBO Reports, 2024) can be followed below.

The chains behind the UniProt entries cited, without tags or fusion partners.
UniProt P63092: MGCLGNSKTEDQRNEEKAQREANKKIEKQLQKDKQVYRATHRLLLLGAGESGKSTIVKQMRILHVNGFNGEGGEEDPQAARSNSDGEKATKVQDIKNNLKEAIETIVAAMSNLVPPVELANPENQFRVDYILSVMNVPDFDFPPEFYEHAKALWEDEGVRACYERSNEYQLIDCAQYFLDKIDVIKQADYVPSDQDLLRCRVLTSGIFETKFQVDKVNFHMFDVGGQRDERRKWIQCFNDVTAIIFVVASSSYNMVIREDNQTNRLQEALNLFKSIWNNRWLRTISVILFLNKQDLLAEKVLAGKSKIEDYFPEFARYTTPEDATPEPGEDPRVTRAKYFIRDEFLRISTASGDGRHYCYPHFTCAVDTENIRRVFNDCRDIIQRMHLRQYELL

Results are given in words; binding and its absence hold for the method and conditions named. For some assays here: In cells and extracts the contact can be indirect. Some entries that bind do so weakly or less than the wild type.

For assay [1], the target named is bovine adenylyl cyclase AC8, purified, tag-free (bovine) (UniProt E1BQ12). Description: cross-linking; XL-MS with DSS and PDH/DMTMM on purified proteins: AC8 alone, AC8:Gαs 1:1.5, AC8:Gβγ 1:3, AC8:CaM 1:2, AC8:CaM:Gαs 1:2:1.5; 50 mM HEPES pH 7.5, 150 mM NaCl, 0.02% GDN, 0.5 mM CaCl2, 1 mM MgCl2, 2.5 mM MnCl2, 100 µM GTPγS; 25 °C; both purified.
Assay [2] has the same target. Description: cross-linking; XL-MS with DSS and PDH/DMTMM on the purified AC8 preparation: links to endogenous proteins copurified with AC8 from HEK293 cells.

For “bovine adenylyl cyclase AC8, purified, tag-free (from UniProt E1BQ12 1-1253) (enzyme)”, in assay [1], the binding entry is “binds”. For the substance “endogenous Gαs (GNAS) copurified with AC8 (from UniProt P63092 1-394)”, the binding entry in assay [2] is on record as “binds”.
